The other results are listed elsewhere or left out.

Chains of the proteins cited; added tags and fusions are not shown. Lines headed by an entry give the natural chain unless they say otherwise; changes in a name come on top.
UniProt Q9Y2E8: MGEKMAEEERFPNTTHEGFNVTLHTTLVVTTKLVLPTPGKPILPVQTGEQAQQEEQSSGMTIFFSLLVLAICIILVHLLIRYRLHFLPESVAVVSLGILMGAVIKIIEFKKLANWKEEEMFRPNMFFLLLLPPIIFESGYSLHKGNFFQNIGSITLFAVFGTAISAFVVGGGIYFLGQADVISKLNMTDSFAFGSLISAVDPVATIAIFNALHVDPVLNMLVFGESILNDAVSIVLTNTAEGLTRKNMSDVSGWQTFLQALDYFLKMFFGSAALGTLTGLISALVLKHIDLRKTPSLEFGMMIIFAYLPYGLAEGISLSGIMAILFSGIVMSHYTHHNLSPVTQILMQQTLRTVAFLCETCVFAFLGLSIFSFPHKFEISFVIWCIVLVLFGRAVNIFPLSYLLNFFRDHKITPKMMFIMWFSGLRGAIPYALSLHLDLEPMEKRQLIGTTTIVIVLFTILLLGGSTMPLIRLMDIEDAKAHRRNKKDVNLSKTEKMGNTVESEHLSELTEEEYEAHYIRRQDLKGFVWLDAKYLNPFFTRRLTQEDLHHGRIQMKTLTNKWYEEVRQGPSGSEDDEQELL
UniProt Q92543: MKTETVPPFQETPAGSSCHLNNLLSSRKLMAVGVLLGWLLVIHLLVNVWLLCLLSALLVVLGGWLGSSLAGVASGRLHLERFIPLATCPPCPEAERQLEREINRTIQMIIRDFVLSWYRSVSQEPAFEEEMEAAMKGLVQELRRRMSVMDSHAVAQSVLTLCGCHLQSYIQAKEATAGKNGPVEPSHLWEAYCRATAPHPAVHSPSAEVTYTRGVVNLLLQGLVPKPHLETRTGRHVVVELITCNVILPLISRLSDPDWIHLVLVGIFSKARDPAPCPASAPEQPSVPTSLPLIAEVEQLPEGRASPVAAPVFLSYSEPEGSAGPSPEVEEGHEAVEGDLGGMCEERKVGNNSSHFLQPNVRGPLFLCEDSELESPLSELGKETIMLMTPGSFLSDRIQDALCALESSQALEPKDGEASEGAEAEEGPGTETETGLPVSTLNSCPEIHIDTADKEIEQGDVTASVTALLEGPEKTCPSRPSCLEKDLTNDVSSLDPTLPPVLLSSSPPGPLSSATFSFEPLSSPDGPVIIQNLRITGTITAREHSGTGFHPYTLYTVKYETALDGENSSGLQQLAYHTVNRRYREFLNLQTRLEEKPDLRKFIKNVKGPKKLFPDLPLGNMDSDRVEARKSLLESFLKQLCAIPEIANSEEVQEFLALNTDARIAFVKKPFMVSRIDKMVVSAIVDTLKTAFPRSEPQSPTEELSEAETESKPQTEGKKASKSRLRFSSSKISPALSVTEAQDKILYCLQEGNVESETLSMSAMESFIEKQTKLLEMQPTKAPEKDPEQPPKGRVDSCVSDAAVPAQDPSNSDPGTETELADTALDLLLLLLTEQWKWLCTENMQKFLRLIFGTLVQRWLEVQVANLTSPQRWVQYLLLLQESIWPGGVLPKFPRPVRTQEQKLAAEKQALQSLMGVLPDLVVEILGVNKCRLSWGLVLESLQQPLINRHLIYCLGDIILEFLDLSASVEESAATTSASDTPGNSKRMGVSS
UniProt P09234, whole entry, looked up: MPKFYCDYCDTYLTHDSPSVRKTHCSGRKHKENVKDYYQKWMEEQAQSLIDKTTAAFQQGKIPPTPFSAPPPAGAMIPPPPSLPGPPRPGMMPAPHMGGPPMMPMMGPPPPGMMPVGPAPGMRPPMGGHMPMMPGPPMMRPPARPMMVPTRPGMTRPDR
UniProt P00441, whole entry, looked up: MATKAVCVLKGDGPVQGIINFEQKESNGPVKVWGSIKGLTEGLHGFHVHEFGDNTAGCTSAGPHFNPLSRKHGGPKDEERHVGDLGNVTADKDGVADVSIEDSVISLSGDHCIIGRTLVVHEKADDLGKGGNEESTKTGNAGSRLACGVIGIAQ
UniProt O95721: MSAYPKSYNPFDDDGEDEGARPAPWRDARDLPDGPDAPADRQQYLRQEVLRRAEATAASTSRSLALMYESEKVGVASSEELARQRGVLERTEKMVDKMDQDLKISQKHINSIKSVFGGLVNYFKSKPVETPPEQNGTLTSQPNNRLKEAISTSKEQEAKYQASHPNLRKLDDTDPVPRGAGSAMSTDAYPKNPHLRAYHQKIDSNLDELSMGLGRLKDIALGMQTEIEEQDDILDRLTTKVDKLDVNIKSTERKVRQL
UniProt Q0VAQ4: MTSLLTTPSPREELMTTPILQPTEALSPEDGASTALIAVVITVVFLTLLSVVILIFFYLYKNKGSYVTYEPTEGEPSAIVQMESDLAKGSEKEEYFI
UniProt Q96E16: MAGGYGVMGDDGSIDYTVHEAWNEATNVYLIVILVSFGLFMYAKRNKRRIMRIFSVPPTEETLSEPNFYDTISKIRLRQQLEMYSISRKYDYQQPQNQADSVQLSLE
UniProt P62308, whole entry, looked up: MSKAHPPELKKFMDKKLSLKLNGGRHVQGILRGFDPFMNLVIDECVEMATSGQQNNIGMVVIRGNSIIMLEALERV
UniProt P28370, whole entry, looked up: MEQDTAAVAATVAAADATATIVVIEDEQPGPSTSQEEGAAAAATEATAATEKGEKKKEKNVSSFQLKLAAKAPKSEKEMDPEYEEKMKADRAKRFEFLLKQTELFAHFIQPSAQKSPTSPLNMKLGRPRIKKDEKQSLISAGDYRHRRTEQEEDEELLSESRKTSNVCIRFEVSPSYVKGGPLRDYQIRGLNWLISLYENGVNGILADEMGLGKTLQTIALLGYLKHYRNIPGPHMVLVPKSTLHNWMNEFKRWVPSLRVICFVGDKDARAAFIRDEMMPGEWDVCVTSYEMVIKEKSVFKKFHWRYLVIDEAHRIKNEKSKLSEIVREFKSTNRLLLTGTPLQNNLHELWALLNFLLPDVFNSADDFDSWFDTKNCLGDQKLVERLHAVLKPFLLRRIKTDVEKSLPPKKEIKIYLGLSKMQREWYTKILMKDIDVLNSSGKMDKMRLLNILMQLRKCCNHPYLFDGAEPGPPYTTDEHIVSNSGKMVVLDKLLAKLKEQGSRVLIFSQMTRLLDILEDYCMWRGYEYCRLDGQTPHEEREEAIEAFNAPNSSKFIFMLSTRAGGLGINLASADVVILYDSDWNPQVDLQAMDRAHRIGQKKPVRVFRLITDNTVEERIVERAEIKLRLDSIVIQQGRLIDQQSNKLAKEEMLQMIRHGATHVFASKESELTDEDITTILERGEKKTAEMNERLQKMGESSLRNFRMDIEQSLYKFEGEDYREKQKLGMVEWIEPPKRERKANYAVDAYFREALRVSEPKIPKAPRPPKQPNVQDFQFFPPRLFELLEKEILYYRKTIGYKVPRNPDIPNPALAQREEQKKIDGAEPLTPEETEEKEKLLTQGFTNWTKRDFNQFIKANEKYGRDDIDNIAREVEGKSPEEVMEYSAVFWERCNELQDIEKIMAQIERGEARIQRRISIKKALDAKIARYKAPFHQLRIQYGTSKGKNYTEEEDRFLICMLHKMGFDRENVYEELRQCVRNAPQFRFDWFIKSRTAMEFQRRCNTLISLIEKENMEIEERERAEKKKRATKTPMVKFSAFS
UniProt Q3SY56: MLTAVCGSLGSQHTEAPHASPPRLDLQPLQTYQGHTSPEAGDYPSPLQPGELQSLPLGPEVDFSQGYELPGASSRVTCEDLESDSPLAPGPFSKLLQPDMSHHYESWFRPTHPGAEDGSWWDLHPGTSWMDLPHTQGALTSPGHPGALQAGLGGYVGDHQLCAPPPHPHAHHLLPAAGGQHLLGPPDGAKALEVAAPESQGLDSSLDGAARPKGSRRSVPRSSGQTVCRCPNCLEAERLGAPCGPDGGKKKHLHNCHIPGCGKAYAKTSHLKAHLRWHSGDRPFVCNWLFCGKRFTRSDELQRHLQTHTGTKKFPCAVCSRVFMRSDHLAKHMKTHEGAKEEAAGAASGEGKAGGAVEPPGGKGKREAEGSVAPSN
UniProt Q8TAQ2, whole entry, looked up: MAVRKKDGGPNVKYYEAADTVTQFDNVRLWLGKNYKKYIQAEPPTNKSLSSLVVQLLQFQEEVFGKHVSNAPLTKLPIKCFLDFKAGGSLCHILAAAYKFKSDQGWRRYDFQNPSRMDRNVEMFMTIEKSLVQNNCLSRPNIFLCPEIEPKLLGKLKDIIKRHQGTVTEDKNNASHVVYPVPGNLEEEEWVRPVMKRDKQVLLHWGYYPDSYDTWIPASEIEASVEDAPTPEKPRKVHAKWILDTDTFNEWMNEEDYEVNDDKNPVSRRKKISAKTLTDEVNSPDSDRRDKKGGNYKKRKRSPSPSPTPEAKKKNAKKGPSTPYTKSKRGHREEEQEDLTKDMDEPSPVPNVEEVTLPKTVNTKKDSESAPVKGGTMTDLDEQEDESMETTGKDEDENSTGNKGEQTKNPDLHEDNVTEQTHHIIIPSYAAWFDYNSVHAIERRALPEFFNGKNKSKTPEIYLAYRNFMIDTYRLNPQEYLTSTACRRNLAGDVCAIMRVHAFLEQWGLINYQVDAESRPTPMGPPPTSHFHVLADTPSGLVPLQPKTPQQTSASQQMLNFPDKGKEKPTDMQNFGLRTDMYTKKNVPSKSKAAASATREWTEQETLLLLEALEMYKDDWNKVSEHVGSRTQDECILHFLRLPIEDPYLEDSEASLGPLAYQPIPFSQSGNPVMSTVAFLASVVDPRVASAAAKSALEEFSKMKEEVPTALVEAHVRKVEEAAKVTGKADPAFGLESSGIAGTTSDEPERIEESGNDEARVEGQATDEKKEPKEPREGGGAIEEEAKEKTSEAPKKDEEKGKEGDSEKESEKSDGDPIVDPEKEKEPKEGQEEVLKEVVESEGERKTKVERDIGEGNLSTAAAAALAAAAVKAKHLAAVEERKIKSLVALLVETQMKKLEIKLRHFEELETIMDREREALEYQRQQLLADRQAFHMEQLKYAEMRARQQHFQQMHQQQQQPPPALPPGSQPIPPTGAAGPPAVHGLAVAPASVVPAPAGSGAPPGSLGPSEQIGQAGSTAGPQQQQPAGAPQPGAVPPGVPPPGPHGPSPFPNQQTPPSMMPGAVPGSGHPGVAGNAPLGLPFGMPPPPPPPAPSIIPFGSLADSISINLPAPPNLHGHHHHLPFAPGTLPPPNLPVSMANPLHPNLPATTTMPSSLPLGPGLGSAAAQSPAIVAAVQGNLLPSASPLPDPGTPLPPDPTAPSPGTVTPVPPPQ
UniProt Q96SB8: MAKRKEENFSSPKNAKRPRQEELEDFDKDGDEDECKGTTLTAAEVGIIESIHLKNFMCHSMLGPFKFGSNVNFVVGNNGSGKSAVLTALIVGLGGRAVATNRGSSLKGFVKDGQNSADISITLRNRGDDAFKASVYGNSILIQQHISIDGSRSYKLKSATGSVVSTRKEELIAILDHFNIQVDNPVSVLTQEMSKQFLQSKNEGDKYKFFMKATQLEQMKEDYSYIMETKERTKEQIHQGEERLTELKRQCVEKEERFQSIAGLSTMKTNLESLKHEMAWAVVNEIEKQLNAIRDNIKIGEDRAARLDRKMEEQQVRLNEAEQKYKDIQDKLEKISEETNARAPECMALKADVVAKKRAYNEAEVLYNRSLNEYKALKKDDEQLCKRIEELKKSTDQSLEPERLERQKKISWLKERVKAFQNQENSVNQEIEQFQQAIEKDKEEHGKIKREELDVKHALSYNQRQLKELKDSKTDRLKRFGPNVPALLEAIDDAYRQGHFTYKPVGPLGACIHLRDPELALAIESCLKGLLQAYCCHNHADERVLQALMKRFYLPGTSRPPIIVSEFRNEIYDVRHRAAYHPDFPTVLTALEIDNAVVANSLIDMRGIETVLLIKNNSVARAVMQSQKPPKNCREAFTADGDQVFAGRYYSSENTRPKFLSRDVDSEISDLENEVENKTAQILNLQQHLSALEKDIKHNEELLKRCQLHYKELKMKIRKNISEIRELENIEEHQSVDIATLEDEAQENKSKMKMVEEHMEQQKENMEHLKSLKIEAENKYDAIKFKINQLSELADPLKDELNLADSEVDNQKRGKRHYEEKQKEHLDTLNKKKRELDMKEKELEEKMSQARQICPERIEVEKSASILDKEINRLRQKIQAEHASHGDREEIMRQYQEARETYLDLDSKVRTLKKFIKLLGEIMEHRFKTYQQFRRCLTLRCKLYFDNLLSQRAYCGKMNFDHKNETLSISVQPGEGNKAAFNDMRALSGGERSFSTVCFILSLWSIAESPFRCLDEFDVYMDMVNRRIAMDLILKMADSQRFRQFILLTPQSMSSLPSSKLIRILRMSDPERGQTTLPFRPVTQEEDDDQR
UniProt P08621, whole entry, looked up: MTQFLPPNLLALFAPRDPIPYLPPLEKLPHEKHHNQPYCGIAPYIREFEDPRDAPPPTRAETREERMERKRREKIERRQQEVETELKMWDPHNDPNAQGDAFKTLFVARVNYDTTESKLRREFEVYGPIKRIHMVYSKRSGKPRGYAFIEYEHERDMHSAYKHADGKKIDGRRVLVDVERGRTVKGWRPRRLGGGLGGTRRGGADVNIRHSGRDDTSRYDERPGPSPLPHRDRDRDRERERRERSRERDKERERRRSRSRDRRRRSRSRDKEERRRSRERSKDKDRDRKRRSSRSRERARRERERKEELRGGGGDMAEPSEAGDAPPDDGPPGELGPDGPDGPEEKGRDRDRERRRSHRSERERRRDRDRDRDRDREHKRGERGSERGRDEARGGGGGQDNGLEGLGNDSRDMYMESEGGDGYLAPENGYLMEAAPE

Compound in this test: c1cn2cc(-c3ccc4cn[nH]c4c3)nc(Nc3ccc(N4CCOCC4)cc3)c2n1 [entospletinib]
In words: log2 fold change, soluble protein after heating vs DMSO (PISA); higher = thermal stabilisation; K562 cells, 10 uM, 30 min; active = over 0.2 and 3.5 SD of the protein, either way, in both replicates (recomputed). In a few lines:
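K562 cells at 2×10^6 cells/mL were treated with 10 μM compound for 30 min. Aliquots were heated for 3 min across 48°C-58°C, pooled, and extracted in PBS with 0.5% NP-40 at 4°C; soluble protein was the supernatant after 21,000xg for 90 min. Soluble protein was quantified by TMTpro 16plex LC-MS/MS with channel sums equalised, and reported as log2 fold change in thermal stability against DMSO controls, with values from duplicates.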
With SNRPD2 (UniProt K7EJB5), the log2 fold change is inactive: -0.068.

As for SLC9A3R2 (UniProt Q15599), the log2 fold change is inactive: 0.024.

Take SMARCC1 (UniProt Q92922): the log2 fold change was inactive: -0.045.

Regarding SNRNP200 (UniProt O75643), the log2 fold change is inactive: 0.092.

For SLC9A8 isoform 2 (UniProt Q9Y2E8), the log2 fold change was inactive: -0.076.

On to SORBS1 isoform 12 (UniProt Q9BX66), for which the log2 fold change is inactive: -0.027.

SNX19 (UniProt Q92543): the log2 fold change is inactive: 0.091.

Take SNRPC (UniProt P09234): the log2 fold change is inactive: -0.012.

In the case of SOD1 (UniProt P00441), the log2 fold change is inactive: 0.014.

In the case of SNAP29 (UniProt O95721), the log2 fold change is inactive: 0.022.

Take SMAGP (UniProt Q0VAQ4): the log2 fold change was inactive: 0.091.

Take SMG7 isoform 4 (UniProt Q92540): the log2 fold change is inactive: 0.024.

Regarding SMIM19 (UniProt Q96E16), the log2 fold change is inactive: -0.01.

Take SNRPG (UniProt P62308): the log2 fold change was inactive: 0.018.

As to SMARCA1 (UniProt P28370), the log2 fold change was inactive: 0.072.

As for SP6 (UniProt Q3SY56), the log2 fold change is inactive: -0.018.

In the case of SNAPIN (UniProt O95295), the log2 fold change was inactive: 0.003.

Take SNAP23 isoform 2 (UniProt O00161): the log2 fold change was inactive: -0.152.

For SMARCC2 (UniProt Q8TAQ2), the log2 fold change is inactive: -0.114.

On to SMIM26, A0A096LP01, for which the log2 fold change is inactive: -0.157.

Regarding SNTB2 (UniProt Q13425), the log2 fold change was inactive: -0.065.

Regarding SLC9A1 (UniProt P19634), the log2 fold change is inactive: -0.046.

SNCA (UniProt P37840): the log2 fold change is inactive: -0.026.

SMC6 isoform 2 (UniProt Q96SB8): the log2 fold change was inactive: 0.074.

Turning to SMARCD2 (UniProt Q92925), the log2 fold change was inactive: 0.165.

As for SND1 (UniProt Q7KZF4), the log2 fold change is inactive: 0.322.

For SNCG (UniProt O76070), the log2 fold change is inactive: -0.012.

For SNRNP70 (UniProt P08621), the log2 fold change was inactive: -0.057.

The values are drawn from the supplement of paper PMC10849652.
